According to the supplement of paper PMC12067093, “Discovery and optimisation of a covalent ligand for TRIM25 and its application to targeted protein ubiquitination” (Chemical Science, 2025):
The list shows a part of the results.

The chains behind the UniProt entries cited, without tags or fusion partners. Where a name states a change or a piece, a line headed by the entry shows the natural chain unless it says otherwise.
UniProt Q14690: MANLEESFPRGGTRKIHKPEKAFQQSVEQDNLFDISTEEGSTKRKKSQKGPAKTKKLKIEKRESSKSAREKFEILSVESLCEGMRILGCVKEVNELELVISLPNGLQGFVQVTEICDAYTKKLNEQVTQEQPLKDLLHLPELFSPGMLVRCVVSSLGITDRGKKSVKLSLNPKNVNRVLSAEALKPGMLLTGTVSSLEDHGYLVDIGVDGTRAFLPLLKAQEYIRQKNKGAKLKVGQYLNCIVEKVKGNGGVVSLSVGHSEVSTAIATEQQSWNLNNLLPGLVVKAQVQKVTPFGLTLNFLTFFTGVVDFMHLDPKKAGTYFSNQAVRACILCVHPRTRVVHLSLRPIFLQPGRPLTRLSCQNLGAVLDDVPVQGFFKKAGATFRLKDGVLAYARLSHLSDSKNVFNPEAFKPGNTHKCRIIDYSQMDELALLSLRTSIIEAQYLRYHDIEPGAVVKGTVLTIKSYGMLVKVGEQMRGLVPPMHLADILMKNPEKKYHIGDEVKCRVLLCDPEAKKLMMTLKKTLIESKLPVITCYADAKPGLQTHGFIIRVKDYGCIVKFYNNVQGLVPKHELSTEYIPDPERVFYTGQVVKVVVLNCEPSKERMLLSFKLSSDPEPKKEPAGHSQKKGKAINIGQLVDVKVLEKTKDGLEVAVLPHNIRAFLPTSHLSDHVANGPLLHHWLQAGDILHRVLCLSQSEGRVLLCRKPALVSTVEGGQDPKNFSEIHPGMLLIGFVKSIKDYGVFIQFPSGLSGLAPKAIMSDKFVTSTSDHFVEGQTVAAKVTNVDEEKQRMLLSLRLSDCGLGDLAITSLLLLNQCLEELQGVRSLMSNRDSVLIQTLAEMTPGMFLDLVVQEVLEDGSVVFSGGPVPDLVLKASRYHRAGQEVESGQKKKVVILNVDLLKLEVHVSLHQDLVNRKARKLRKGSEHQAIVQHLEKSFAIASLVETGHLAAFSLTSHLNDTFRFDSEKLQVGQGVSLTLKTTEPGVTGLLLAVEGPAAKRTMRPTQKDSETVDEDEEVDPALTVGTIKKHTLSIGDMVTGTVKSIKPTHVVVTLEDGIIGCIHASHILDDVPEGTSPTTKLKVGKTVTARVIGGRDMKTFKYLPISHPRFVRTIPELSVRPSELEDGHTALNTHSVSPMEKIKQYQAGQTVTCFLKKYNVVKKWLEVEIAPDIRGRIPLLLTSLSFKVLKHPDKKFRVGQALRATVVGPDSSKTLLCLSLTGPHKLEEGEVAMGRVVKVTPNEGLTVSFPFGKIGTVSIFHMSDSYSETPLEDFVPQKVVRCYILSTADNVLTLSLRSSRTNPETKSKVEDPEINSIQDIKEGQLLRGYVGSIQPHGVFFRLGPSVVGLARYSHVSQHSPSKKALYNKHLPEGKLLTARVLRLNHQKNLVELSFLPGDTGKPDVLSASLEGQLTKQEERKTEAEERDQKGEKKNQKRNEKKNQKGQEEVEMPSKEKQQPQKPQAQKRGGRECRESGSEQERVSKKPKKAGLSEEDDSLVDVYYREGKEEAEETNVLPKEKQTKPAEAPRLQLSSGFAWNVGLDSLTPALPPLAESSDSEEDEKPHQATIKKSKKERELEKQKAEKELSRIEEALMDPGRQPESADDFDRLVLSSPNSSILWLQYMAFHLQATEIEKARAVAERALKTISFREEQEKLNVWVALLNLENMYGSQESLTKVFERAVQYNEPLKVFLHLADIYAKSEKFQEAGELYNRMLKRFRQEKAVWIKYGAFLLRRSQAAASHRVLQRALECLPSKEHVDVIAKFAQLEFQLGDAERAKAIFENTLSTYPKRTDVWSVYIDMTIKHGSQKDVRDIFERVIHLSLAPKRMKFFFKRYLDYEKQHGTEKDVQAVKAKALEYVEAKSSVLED
UniProt O95613: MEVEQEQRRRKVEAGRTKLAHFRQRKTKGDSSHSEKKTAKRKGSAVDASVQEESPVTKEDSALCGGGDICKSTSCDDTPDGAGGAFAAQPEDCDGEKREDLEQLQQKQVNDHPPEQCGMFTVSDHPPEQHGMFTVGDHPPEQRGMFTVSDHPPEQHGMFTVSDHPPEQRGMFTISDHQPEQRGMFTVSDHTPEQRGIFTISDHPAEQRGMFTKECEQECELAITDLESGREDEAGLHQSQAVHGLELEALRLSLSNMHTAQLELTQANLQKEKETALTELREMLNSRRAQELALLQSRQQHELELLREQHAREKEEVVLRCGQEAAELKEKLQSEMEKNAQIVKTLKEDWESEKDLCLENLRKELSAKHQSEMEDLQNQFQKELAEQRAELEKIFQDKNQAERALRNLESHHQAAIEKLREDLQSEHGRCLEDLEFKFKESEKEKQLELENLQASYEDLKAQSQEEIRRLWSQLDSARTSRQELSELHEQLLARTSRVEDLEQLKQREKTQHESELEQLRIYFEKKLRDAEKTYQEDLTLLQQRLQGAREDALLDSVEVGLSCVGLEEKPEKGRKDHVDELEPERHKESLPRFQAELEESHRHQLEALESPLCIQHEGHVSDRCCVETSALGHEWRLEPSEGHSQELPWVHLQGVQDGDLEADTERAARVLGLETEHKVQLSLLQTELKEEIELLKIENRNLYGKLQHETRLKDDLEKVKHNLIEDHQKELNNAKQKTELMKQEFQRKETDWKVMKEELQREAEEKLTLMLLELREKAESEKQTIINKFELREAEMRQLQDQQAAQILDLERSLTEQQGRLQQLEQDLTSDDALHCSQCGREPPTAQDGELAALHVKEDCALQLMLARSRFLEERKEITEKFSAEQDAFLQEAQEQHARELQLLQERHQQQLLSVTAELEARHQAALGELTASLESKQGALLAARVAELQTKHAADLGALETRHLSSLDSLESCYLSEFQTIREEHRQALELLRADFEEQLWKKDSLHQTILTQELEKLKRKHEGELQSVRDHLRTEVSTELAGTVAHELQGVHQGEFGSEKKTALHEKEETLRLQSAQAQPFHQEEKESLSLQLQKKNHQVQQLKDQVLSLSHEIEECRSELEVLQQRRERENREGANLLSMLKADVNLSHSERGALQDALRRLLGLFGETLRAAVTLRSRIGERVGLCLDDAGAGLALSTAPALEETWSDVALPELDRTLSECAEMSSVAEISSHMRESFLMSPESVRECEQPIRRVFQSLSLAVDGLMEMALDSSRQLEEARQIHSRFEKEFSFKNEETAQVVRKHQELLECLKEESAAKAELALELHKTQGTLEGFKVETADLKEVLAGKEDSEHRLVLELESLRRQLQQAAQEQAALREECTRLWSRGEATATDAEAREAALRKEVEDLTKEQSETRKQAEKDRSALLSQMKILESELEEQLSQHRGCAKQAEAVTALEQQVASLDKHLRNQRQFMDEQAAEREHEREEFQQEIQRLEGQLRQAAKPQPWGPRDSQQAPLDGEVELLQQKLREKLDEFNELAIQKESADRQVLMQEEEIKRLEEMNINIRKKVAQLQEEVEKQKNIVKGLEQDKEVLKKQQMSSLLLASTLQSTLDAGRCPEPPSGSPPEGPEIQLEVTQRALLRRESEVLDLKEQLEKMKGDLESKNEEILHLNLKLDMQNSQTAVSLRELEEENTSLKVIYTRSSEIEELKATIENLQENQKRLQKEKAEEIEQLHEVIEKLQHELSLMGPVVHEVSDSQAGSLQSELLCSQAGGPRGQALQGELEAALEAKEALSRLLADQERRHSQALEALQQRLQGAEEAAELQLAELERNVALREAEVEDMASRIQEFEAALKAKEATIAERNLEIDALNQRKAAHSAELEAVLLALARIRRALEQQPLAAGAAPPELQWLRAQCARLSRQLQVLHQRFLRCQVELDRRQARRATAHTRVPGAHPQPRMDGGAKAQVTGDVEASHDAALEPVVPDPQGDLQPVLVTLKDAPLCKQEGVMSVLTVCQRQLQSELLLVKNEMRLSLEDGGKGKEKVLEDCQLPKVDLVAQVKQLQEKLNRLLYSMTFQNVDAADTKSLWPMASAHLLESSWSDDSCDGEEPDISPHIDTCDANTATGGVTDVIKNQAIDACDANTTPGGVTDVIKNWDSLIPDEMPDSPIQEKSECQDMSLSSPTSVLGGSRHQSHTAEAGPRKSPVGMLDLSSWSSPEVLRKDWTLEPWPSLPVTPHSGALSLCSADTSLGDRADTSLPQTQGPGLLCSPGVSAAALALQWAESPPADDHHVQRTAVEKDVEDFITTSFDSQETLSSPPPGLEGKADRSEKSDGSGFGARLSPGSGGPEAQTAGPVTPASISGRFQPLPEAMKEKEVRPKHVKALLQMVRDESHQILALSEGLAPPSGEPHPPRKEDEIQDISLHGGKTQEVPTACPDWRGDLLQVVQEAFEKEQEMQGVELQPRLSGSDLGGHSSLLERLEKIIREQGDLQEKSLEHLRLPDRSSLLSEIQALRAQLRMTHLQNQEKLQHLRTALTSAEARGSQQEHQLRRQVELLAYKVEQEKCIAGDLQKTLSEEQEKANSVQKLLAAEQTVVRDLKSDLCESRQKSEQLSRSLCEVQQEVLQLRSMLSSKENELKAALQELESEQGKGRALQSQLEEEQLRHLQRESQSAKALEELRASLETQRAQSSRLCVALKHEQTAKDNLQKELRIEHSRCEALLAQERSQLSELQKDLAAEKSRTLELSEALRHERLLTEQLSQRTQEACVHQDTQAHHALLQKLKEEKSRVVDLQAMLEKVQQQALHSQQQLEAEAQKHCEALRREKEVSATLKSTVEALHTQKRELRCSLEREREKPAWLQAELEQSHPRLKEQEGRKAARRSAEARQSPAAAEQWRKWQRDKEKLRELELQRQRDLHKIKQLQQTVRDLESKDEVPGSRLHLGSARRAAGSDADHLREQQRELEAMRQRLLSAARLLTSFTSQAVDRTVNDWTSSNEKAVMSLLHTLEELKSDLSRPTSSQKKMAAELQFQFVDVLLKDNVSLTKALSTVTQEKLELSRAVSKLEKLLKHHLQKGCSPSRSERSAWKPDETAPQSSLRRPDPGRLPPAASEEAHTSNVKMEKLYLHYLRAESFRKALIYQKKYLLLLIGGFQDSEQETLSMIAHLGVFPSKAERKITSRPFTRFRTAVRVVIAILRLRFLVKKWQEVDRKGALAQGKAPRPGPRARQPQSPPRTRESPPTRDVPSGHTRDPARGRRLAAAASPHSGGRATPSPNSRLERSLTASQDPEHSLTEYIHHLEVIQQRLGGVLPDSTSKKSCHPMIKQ
UniProt P09874, whole entry, looked up: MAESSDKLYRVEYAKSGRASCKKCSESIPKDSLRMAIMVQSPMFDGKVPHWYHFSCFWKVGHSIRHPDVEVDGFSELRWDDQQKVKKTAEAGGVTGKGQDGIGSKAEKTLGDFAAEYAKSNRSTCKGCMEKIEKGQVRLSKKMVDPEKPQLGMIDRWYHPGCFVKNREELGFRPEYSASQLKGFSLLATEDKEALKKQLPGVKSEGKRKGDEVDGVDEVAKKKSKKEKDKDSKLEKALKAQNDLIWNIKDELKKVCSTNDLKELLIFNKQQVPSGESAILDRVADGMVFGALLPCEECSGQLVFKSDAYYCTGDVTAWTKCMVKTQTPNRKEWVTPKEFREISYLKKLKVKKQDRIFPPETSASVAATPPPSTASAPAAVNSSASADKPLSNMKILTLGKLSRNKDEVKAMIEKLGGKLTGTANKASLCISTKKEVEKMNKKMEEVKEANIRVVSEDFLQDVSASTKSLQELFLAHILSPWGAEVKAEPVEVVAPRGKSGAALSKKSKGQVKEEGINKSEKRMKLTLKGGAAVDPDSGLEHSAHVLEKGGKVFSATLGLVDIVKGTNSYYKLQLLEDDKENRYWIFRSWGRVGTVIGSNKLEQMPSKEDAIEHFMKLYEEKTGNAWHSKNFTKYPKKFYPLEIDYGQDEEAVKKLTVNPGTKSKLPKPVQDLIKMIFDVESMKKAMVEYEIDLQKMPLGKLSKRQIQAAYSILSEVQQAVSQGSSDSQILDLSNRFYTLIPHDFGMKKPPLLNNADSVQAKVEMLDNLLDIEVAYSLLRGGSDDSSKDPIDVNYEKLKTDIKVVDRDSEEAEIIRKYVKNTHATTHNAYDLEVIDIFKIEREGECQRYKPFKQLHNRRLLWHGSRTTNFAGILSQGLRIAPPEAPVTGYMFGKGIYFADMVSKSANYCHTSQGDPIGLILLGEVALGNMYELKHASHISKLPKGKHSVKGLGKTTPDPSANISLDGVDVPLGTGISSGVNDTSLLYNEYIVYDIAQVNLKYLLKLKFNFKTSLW
UniProt O00151: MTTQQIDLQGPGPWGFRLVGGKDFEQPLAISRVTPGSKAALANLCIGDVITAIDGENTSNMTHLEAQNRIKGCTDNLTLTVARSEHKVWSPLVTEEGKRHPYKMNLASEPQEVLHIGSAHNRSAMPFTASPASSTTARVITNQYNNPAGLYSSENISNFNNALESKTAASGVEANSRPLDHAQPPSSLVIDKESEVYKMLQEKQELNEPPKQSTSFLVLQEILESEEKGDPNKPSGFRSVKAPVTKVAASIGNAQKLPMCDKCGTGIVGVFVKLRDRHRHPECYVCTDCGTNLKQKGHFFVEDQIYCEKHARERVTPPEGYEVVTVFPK

Compound: CC1Cc2ccccc2N1C(=O)C1CCCN(C1)C(=O)CCl (mixture of isomers) [TRIM25 ligand 11 (diastereomer mixture)]
Experiment: probe-labelled cysteine peptide fold change vs DMSO (competition) (log2 fold change); higher = less target engagement (more negative = stronger competition)
Conditions: THP-1, incubation time: 4 h
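Note: competitive chemoproteomic profiling in live THP-1 cells with an iodoacetamide desthiobiotin (IA-DTB) probe, comparing probe-labelled peptide intensities in compound-treated cells against DMSO-treated controls.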

Target	probe-labelled cysteine peptide fold change (10 µM)	probe-labelled cysteine peptide fold change (50 µM)
PDCD11_Q14690_1154_QYQAGQTVTCFLK (UniProt Q14690)	-0.0831	0.0115
PDLIM7_Q9NR12_364_MTWHVHCFTCAACK (UniProt Q9NR12)	0.0335	-0.00467
PARP8_Q8N3A8_27_DCLFADFR (UniProt Q8N3A8)	0.00802	-0.0304
PCYOX1_Q9UHG3_258_LVCSGLLQASK (UniProt Q9UHG3)	0.0254	-0.0374
PCNT_O95613_321_CGQEAAELK (UniProt O95613)	-0.05	0.111
PARP1_P09874_56_VPHWYHFSCFWK (UniProt P09874)	0.0175	-0.178
PCDH17_O14917_335_DLGPNPIPAHCK (UniProt O14917)	0.6	0.546
PDLIM1_O00151_286_HRHPECYVCTDCGTNLK (UniProt O00151)	0.117	0.192
PDP1_Q9P0J1_275_VAFSGATACVAHVDGVDLHVANTGDSR (UniProt Q9P0J1)	0.157	0.223
PDLIM5_Q96HC4_73_GCTGSLNMTLQR (UniProt Q96HC4)	0.00727	0.0182
PDCD11_Q14690_81_EKFEILSVESLCEGMR (UniProt Q14690)	-0.174	-0.175
PDIA4_P13667_91_DTVLLEFYAPWCGHCK (UniProt P13667)	0.0339	-0.201
PDCL_Q13371_35_CAPASSSVPAEAELAGEGISVNTGPK (UniProt Q13371)	-0.049	-0.328
PARP4_Q9UKK3_182_DCPFLISSHFLLDDGMETR (UniProt Q9UKK3)	0.0239	-0.0284

Laid out differently: results already given.
Target | probe-labelled cysteine peptide fold change (10 µM) | probe-labelled cysteine peptide fold change (50 µM)
PCNT_O95613_321_CGQEAAELK (UniProt O95613) | -0.05 | 0.111
PARP1_P09874_56_VPHWYHFSCFWK (UniProt P09874) | 0.0175 | -0.178
